We go through three substances from article PMC6811503.

Sequences of proteins named here, by UniProt entry; tags and fusion partners are left off. A change or cut given only in a name is not applied to a line headed by its entry.
UniProt J9VMS4: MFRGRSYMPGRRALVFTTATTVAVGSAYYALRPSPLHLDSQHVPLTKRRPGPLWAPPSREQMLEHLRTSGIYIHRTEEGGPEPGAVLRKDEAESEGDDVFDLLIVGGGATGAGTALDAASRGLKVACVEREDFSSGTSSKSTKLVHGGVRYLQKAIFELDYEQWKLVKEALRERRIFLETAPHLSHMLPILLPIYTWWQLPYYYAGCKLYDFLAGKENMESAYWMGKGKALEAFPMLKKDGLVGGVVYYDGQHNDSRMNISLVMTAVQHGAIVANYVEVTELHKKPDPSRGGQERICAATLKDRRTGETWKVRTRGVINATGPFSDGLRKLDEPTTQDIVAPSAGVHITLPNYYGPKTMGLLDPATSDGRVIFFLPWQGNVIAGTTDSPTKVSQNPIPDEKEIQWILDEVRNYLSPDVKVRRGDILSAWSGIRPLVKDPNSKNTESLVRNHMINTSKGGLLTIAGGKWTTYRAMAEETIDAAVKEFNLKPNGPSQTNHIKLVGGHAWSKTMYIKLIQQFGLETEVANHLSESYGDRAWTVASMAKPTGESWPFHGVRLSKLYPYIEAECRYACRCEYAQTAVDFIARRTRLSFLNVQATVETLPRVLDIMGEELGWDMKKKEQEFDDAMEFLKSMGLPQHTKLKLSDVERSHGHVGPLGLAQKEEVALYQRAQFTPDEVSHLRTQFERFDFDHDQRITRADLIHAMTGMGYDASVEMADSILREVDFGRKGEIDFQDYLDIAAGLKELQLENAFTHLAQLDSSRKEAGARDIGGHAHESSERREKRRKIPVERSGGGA
UniProt J9VVA4: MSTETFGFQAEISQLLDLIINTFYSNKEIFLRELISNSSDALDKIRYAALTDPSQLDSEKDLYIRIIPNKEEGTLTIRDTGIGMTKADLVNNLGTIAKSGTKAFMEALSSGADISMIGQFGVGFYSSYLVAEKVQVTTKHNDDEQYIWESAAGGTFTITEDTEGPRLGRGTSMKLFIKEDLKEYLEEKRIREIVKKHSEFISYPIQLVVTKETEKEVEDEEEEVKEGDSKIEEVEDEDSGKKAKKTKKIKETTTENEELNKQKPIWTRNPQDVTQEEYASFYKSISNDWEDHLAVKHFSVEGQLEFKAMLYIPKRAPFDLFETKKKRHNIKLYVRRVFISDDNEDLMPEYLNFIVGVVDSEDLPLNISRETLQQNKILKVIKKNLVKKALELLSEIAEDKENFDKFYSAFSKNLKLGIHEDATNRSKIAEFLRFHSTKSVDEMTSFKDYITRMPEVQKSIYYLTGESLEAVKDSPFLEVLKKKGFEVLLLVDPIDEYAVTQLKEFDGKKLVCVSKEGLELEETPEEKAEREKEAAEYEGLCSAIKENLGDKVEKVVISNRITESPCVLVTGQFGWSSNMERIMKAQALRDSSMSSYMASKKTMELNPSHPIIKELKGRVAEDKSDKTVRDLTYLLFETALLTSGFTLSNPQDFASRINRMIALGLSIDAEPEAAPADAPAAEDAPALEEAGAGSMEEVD
UniProt J9VT48: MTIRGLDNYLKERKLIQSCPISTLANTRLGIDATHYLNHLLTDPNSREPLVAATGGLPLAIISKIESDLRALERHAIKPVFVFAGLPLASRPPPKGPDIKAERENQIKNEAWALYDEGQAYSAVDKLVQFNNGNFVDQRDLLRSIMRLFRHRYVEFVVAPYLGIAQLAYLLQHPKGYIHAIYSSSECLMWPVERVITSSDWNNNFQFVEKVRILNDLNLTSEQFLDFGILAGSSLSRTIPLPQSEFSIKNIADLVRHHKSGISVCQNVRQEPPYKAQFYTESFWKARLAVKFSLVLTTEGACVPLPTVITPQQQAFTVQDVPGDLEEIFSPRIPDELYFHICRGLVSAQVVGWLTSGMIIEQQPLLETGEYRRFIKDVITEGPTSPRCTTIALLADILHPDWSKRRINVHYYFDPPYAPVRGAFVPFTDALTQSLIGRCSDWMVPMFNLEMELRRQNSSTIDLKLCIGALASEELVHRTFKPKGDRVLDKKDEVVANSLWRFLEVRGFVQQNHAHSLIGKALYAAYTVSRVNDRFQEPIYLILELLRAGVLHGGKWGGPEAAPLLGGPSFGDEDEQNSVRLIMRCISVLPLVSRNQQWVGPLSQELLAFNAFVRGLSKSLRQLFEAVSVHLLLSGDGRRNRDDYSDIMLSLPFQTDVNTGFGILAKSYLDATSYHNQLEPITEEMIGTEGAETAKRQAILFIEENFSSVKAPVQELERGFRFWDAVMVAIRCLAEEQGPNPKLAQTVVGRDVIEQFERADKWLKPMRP

No constants are given. Whether binding was seen depends on the method and setting. Binding seen in cells or lysates may run through a third protein. Here binding means that the protein was enriched with, or labelled near, the bait; the list need not be complete. Sequences can lack the tags named with a protein.

This assay deals with T1, Pbp1-4×FLAG (C. neoformans) (UniProt J9VND4).
T1 sequence: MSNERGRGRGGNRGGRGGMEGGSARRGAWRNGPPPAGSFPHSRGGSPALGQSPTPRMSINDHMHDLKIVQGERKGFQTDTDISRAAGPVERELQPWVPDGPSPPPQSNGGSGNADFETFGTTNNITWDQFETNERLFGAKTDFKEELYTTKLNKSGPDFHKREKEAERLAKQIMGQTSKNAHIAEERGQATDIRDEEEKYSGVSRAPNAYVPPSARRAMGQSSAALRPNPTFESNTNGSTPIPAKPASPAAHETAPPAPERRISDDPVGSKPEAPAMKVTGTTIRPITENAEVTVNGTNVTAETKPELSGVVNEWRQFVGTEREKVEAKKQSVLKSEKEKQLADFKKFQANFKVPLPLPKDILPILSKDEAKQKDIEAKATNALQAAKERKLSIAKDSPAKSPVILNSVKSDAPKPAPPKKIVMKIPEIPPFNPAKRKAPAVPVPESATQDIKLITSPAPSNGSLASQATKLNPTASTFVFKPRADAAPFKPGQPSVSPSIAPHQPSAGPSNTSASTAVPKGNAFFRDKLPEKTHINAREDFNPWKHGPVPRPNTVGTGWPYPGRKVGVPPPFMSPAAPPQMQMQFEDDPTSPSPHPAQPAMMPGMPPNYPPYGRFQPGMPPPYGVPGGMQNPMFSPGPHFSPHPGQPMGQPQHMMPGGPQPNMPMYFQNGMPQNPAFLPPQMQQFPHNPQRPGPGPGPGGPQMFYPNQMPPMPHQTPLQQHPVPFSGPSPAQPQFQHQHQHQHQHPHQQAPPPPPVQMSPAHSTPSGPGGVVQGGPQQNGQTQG
Kind of assay: affinity purification with mass spectrometry; anti-FLAG M2 affinity gel on lysate of HP181 (Pbp1-4xFLAG), untagged H99 as control; cells grown at 30°C then 1 h at 37°C; lysis buffer 50 mM Tris-HCl pH 7.5, 150 NaCl, 0.5 mM EDTA, 0.5% Triton X-100; 4°C; one Coomassie-stained band seen only with HP181 was excised, digested with trypsin and analysed by LC-MS/MS.
As for Gut2 (from UniProt J9VMS4), the binding result is listed as “binds”.

For Hsc82 (from UniProt J9VVA4 1-699), the binding entry is “binds”.

Consider “Mkt1 (Maintenance of K2 Killer Toxin 1) (from UniProt J9VT48 1-768)”, for which the binding result is “binds”.
